Results are given in words; binding and its absence hold for the method and conditions named. In cells and extracts the contact can be indirect. Some entries that bind do so weakly or less than the wild type. Sequences can lack the tags named with a protein.

By UniProt entry, the sequences of proteins in these tests, tags left out. Where a name states a change or a piece, a line headed by the entry shows the natural chain unless it says otherwise. Chains listed by the source or under a name are the forms on record and can include a tag or linker.
beta II protein kinase C (βIIPKC), endogenous rat (rat (endogenous in heart and neonatal cardiomyocytes)) (P68403-2, form named): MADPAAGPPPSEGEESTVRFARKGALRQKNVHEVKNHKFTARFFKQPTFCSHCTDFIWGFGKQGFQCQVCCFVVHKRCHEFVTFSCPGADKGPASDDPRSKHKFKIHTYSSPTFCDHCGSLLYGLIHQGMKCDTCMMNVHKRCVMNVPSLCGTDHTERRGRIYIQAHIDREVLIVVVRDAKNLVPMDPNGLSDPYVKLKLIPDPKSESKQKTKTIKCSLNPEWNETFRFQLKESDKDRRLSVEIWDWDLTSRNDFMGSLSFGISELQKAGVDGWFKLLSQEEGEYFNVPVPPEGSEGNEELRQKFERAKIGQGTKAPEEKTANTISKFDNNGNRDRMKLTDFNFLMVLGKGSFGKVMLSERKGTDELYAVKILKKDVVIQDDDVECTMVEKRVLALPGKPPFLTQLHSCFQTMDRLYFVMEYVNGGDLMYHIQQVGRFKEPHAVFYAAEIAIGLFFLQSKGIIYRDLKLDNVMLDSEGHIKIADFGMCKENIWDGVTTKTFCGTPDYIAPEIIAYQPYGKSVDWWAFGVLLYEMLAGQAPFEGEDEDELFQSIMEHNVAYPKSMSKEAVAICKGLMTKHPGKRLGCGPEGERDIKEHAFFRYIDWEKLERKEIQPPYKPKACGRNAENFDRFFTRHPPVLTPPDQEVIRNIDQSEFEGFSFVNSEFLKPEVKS

Test [1] concerns the target T1, mitofusin 1 (Mfn1), endogenous rat (rat (endogenous in heart and neonatal cardiomyocytes)) (UniProt Q8R4Z9).
T1 sequence: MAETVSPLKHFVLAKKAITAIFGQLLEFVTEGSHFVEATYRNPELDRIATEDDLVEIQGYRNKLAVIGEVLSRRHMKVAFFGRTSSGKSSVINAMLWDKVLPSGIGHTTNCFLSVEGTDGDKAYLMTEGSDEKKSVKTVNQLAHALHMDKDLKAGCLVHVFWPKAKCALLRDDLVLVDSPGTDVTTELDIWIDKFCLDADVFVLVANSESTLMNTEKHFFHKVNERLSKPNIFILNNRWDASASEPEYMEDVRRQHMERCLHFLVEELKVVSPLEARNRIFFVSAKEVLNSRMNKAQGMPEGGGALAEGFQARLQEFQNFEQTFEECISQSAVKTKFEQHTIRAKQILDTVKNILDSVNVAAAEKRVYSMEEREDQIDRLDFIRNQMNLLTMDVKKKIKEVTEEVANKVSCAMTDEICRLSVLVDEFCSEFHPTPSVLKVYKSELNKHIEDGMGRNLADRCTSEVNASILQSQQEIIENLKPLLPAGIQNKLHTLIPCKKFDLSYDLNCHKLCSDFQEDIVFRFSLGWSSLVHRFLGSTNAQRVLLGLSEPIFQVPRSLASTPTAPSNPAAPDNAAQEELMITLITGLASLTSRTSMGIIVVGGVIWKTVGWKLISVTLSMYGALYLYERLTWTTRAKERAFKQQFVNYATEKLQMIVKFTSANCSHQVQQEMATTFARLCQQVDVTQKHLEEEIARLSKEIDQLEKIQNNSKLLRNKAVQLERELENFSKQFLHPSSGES
Briefly: co-IP; rat cardiac mitochondrial fraction (0.25 mg protein) with 2 μg anti-Mfn1 or anti-βIIPKC antibody in NaCl 150 mM, EDTA 5 mM, Tris-HCl 10 mM, Triton X100 0.1%, pH 7.4, 3 h at 4 °C, protein A/G agarose; western blot; hearts of sham, TAT-treated, βII_(V5-3)-treated or SAMβA-treated heart failure rats. On the technique in general: Immunoblotting shows a protein as a band on a membrane.

Test [2] concerns the target beta II protein kinase C (βIIPKC), endogenous rat (rat (endogenous in heart and neonatal cardiomyocytes)) (UniProt P68403). The test is described as above.

“beta II protein kinase C (βIIPKC), endogenous rat (from UniProt P68403-2 1-673) (enzyme)”: the binding result in test [1] is listed as “binds”.

B1: mitofusin 1 (Mfn1), endogenous rat (enzyme, UniProt Q8R4Z9 1-741)
chain: T1 sequence
On to B1, for which, in test [2], the binding result is listed as “binds”.

For the origin of these results see article PMC6338754.
